The nature of the test: qHTS Assay for Modulators of Lamin A Splicing. Conditions: HeLa LMNA splicing GFP/RFP minigene ratio, 48 h. The method, boiled down:
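Read-out is the ratio of GFP to DsRed2 object intensity, acquired by 488 nm laser-scanning cytometry on HeLa lamin A-EGFP minigene reporter cells. Compound incubation 48 hrs at 37 °C in Opti-MEM with 2% FBS; DMSO 0.5% final.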

[1] abbreviates: measured here: GFP splicing reporter channel.
[2] abbreviates: measured here: RFP viability control channel.

This is one part of the list. Shown are side measurements of this screen, not its main read-out; they come without a call. Compounds called inactive in the main read-out are mostly missing here. Potencies come from curve fits of mixed quality, noted in brackets.

By AC50 is commonly meant the concentration at which the activity in the assay is half-maximal. For `COc1ccc2c(C)cc(SCc3c(C)noc3C)nc2c1`, the AC50 under setting [1] was 17.8 µM [rising, single point].

In the case of `Cc1ccc(NC2(c3nnnn3-c3c(C)cccc3C)CCCCC2)cc1`, the AC50 under setting [2] is 35.5 µM [rising, single point].

Consider `O=C(Nc1nnc(S(=O)(=O)N2CCCCCC2)s1)c1ccc(Br)cc1`, for which the AC50 under setting [2] is 2.82 µM [rising, full curve].

In the case of `COC(=O)c1ccc(NC(=S)N2CCN(Cc3ccccc3Cl)CC2)cc1`, the AC50 under setting [2] is 28.2 µM [falling, partial curve, poor fit].

Take `Cc1ccc(S(=O)(=O)N(CC(=O)N/N=C/c2ccc(F)cc2)c2cccc3cccnc23)cc1`: the AC50 by setting is: under setting [1], 12.6 µM [falling, single point]; under setting [2], 12.6 µM [falling, partial curve].

Take `Cc1cc(C(=O)Cn2ncc(Cl)c(Cl)c2=O)c(C)n1CC(F)(F)F`: the AC50 under setting [2] was 15.8 µM [falling, partial curve].

For `COc1ccc(-c2c(NC(=O)c3ccco3)n(C)c3ccccc3c2=O)cc1`, the AC50 under setting [2] is 11.2 µM [falling, partial curve, poor fit].

Turning to `C=C(C(=O)c1ccccc1)C(CC(=O)c1ccccc1)c1ccccc1` (stereo unspecified), the AC50 under setting [1] is 12.6 µM [falling, partial curve] and the AC50 under setting [2] is 11.2 µM [falling, single point].

Turning to `Cc1ccc(S(=O)(=O)NCCC(=O)OCC(=O)Nc2ccccc2Cl)cc1`, the AC50 under setting [2] is 14.1 µM [rising, partial curve, poor fit].

Regarding `COc1cc(NS(=O)(=O)c2ccc(N/C=C(\C#N)c3nc4ccccc4o3)cc2)nc(OC)n1`, the AC50 was 6.31 µM [rising, partial curve] under setting [1] and 8.91 µM [rising, partial curve] under setting [2].

In the case of `COc1ccc(-c2noc(CN3CCC(Cc4ccccc4)CC3)n2)cc1`, the AC50 under setting [2] was 35.5 µM [rising, single point].

Turning to `CCN(CC)S(=O)(=O)c1cc(NC(=O)C(C)Nc2ccccc2N2CCOCC2)ccc1C` (stereo unspecified), the AC50 is, setting by setting: under setting [1], 0.891 µM [falling, partial curve]; under setting [2], 0.224 µM [falling, full curve, poor fit].

On to `CCOC(=O)c1sc(NC(=O)c2nc3ncccn3n2)c(C(=O)OC(C)C)c1C`, for which the AC50 under setting [2] is 0.00316 µM [falling, full curve, poor fit].

Regarding `Cc1ccc(NC(=S)NCCN(C2CCCCC2)C2CCCC2)cc1C`, the half-maximal activity concentration (AC50) is, setting by setting: under setting [1], 28.2 µM [falling, partial curve]; under setting [2], 35.5 µM [falling, single point].

On to `CC(=O)c1c(C)[nH]c(C(=O)Nc2ccc(Cl)c(S(=O)(=O)N3CCOCC3)c2)c1C`, for which the AC50 under setting [2] was 12.6 µM [rising, partial curve].

For the compound `Cc1ccc(NS(=O)(=O)c2ccc3[nH]c4c(c3c2)CCCC4)c(C)c1`, the half-maximal activity concentration (AC50) was 17.8 µM [falling, partial curve] under setting [1] and 25.1 µM [falling, single point] under setting [2].

With `CN(C)Cc1ccccc1Sc1cccc2ccccc12`, under setting [2], the AC50 is 22.4 µM [rising, single point].

As for `Cc1cc(C)cc(C(=O)NCC(=O)OCC(=O)N2CCN(S(=O)(=O)c3ccc4ccccc4c3)CC2)c1`, the AC50 under setting [1] is 7.08 µM [rising, partial curve] and the AC50 under setting [2] is 5.62 µM [rising, full curve, poor fit].

Take `CCC(=O)N1CCc2cc(S(=O)(=O)NCCC(=O)N3CCN(Cc4ccccc4)CC3)ccc21`: the AC50 was 17.8 µM [rising, single point] under setting [1] and 15.8 µM [rising, single point] under setting [2].

Turning to `CCOCCn1c(COc2ccc(C)cc2)nc2ccccc21`, the AC50 is, setting by setting: under setting [1], 10 µM [rising, partial curve, poor fit]; under setting [2], 15.8 µM [rising, single point].

In the case of `COC(=O)c1ccc2nc(NC(=O)CN3C(=O)CCC3=O)sc2c1`, the AC50 under setting [2] was 6.31 µM [rising, partial curve].

`CCCCCCCCCCn1c2c(c(=N)c3c1CCC3)CCC2`: the AC50 is 15.8 µM [falling, single point] under setting [1] and 20 µM [falling, partial curve] under setting [2].

For the compound `COc1cc(-c2cc(C(=O)Nc3c(Cl)cc(Cl)cc3Cl)c3ccccc3n2)cc(OC)c1OC`, the AC50 under setting [1] is 22.4 µM [rising, single point].

`Cc1ccc(Cl)cc1NC(=O)C[n+]1ccc(Cc2ccc([N+](=O)[O-])cc2)cc1`: under setting [2], the AC50 was 35.5 µM [rising, single point].

Turning to `CCOc1ccccc1NC(=O)CN(c1ccc(OC)cc1)S(=O)(=O)c1c(C)noc1C`, the AC50 runs as follows: under setting [1], 11.2 µM [rising, partial curve]; under setting [2], 6.31 µM [rising, full curve].

In the case of `CCOC(=O)C1(CC2CC2)CCN(Cc2cnc(-c3ccccc3C)nc2)CC1`, the AC50 under setting [1] was 35.5 µM [falling, partial curve, poor fit].

Take `Cn1c(=O)c(C(=O)COC(=O)c2cc(C(F)(F)F)nc3ccccc23)c(N)n(Cc2ccccc2)c1=O`: the AC50 runs as follows: under setting [1], 12.6 µM [rising, partial curve]; under setting [2], 25.1 µM [rising, single point].

On to `COc1cccc(Cn2c(=O)c(C)nc3cnc(N4CCN(C)CC4)nc32)c1`, for which the AC50 under setting [1] is 14.1 µM [falling, partial curve].

With `O=C(/C=C/c1ccccc1Cl)c1cccnc1`, the AC50 is 25.1 µM [falling, single point] under setting [1] and 35.5 µM [falling, single point] under setting [2].

In the case of `O=C(/C=C/c1ccco1)Nc1nnc(-c2ccco2)s1`, the AC50 runs as follows: under setting [1], 1.26 µM [rising, full curve]; under setting [2], 1 µM [rising, partial curve, poor fit].

Regarding `CCOc1ccc2nc(SC3CC(=O)N(c4ccc(OC)cc4OC)C3=O)sc2c1` (stereo unspecified), the AC50 under setting [1] was 2.82 µM [falling, partial curve, poor fit].

Take `COc1ccc(CC(=O)NC(C)c2nnc(SCCC(=O)Nc3ccccc3)n2C)cc1` (stereo unspecified): the AC50 reads like this: under setting [1], 1 µM [falling, full curve, poor fit]; under setting [2], 4.47 µM [falling, partial curve, poor fit].

Regarding `COc1ccc(Cn2c(=S)[nH]c3cc(C(=O)NCc4cccnc4)ccc3c2=O)cc1`, under setting [2], the AC50 is 5.62 µM [falling, single point].

Regarding `CCc1nnc(NS(=O)(=O)c2ccc(NC(=S)NC(=O)/C=C/c3ccccc3)cc2)s1`, the concentration at half-maximal activity (AC50) under setting [2] is 14.1 µM [rising, single point].

Take `CC(=O)O[C@H]1C[C@@]2(C)[C@@H](C[C@@H](O)[C@H]3[C@@]4(C)CC[C@@H](O)[C@@H](C)C4CC[C@@]32C)/C1=C(\CCC=C(C)C)C(=O)O` (stereo partly specified): the concentration at half-maximal activity (AC50) under setting [1] is 11.2 µM [falling, partial curve, poor fit] and the half-maximal activity concentration (AC50) under setting [2] was 15.8 µM [falling, single point].

Regarding `Cn1cc(Br)c(C(=O)Nc2ncc(Br)s2)n1`, the AC50 is 1 µM [falling, full curve, poor fit] under setting [1] and 0.708 µM [falling, partial curve, poor fit] under setting [2].

As for `CCOC(=O)N1CCN(S(=O)(=O)c2ccc(F)c(C(=O)Nc3cccc(Cl)c3C)c2)CC1`, the AC50 under setting [2] is 14.1 µM [rising, partial curve].

As to `C/C(=N\NC(=O)C(C)Oc1ccc([N+](=O)[O-])cc1)c1ccccn1` (stereo unspecified), the AC50 was 3.16 µM [falling, full curve] under setting [1] and 6.31 µM [falling, full curve] under setting [2].

In the case of `CC(O)COc1ccc(/C(=N/O)c2ccccc2)cc1` (stereo unspecified), the AC50 under setting [1] is 12.6 µM [rising, single point].

As to `COc1ccc(-n2nnnc2SCC(=O)c2cccc(OC)c2)cc1`, the half-maximal activity concentration (AC50) under setting [2] is 31.6 µM [rising, single point].

In the case of `COc1cccc(CSc2nc3ccccc3[nH]2)c1`, the AC50 under setting [2] is 10 µM [rising, partial curve].

As to `O=C(CN1CCOCC1)Nc1ccc(N2CCN(c3ccccc3)CC2)c(F)c1`, the AC50 under setting [1] was 8.91 µM [falling, partial curve, poor fit].

With `O=C(O)C1CC=CCC1C(=O)Nc1ccc(S(=O)(=O)N2CCCc3ccccc32)cc1` (stereo unspecified), under setting [2], the half-maximal activity concentration (AC50) is 7.08 µM [rising, full curve].

On to `Cn1cc(CCNC(=O)CC2C(=O)NCCN2Cc2cccc(Oc3ccccc3)c2)cn1` (stereo unspecified), for which, under setting [1], the AC50 was 0.00891 µM [falling, full curve, poor fit].

As to `O=C(Nc1nc(=O)[nH]s1)c1ccccc1`, the AC50 under setting [2] is 0.0282 µM [falling, full curve, poor fit].

For the compound `Cn1c(=S)n(C)c2ccccc21`, the AC50 under setting [1] was 0.0224 µM [rising, full curve, poor fit].

Take `O=C(c1cc(COc2ccc3ncccc3c2)on1)N1CCC(O)CC1`: the concentration at half-maximal activity (AC50) under setting [1] was 17.8 µM [falling, partial curve] and the AC50 under setting [2] was 20 µM [falling, partial curve, poor fit].

Consider `CNC(=O)c1ccsc1NC(=O)c1ccc(S(=O)(=O)N2CCc3ccccc32)cc1`, for which the AC50 is, setting by setting: under setting [1], 35.5 µM [rising, single point]; under setting [2], 35.5 µM [rising, single point].

In the case of `COc1ccc(C(=O)N2CCC(c3nc4ccccc4o3)CC2)cc1`, the AC50 is 0.0562 µM [falling, full curve, poor fit] under setting [1] and 0.01 µM [falling, full curve, poor fit] under setting [2].

Regarding `Cc1cccc2sc(NC(=O)CSCc3ccccc3)nc12`, the AC50 runs as follows: under setting [1], 14.1 µM [rising, single point]; under setting [2], 35.5 µM [rising, single point].

With `CSc1nc(-c2ccc(C)cc2)nc(C(Cl)Cl)n1`, the AC50 is, setting by setting: under setting [1], 4.47 µM [falling, partial curve]; under setting [2], 5.62 µM [falling, single point].

As to `COc1ccc(S(=O)(=O)c2c(Nc3ccc(F)cc3)sc(C(=O)c3ccc(C)cc3C)c2N)cc1`, the AC50 is 3.98 µM [rising, partial curve] under setting [1] and 5.01 µM [rising, single point] under setting [2].

The values are drawn from PubChem BioAssay AID1487 (National Center for Advancing Translational Sciences (NCATS), 2009).
